PubChem BioAssay AID2685 (National Center for Advancing Translational Sciences (NCATS), 2010)
The other results are listed elsewhere or left out. These are further read-outs of the screen, such as a control signal, another cell line or another target. No call is given for them. The list favours compounds with an active or inconclusive main result. The note in brackets gives the kind of curve behind each potency; many fits are weak.

Test: qHTS Assay for Lipid Storage Modulators in Drosophila S3 Cells;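 for cell number change: cells counted by Cell Tracker Red CMTPX staining in the red channel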
Conditions: BODIPY lipid droplet fluorescence, 18-24 h; for cell number change: measured here: cell count max response, cells fed with added oleic acid
Summary of the method: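 Drosophila S3 cells got compounds at several concentrations plus oleic acid (400 uM solution). Laser-scanning cytometry with 488 nm excitation read lipid droplets at 500-530 nm and cells at 575-640 nm. Percent activity was relative to 20 uM Triacsin C.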

[1] = measured here: cell number channel AC50, cells fed with added oleic acid
[2] = measured here: lipid fluorescence (Fed channel) AC50, cells fed with added oleic acid

Structure (SMILES)	cell number change	AC50 [1]	AC50 [2]
COc1ccc(/C=N\NC(=O)c2ccccc2Cl)cc1COc1c(F)c(F)c(F)c(F)c1F	-32%	206 nM [falling, full curve, poor fit]	
O=C(Nc1ccccc1N1CCOCC1)c1ccncc1	-20.9%	731 nM [falling, full curve, poor fit]	820 nM [falling, single point]
CCNc1ccc(S(=O)(=O)N(C)C)cc1NCC(=O)Nc1ccc(Br)cc1F	-8.12%		29100 nM [falling, single point]
Cc1cc(CCN2CCC(=O)NC2=S)ccc1OC(C)C	19.5%	1160 nM [rising, full curve, poor fit]	
O=C(COc1ccc(Cl)cc1Cl)NCc1ccco1		16.4 nM [falling, full curve, poor fit]	
CC(=O)NCCSCCNC(C)=O	0.611%		164 nM [falling, full curve, poor fit]
CCC(C(=O)N1CCN(S(C)(=O)=O)CC1)c1ccccc1 (configuration not stated)	-180%	29100 nM [falling, single point]	
COc1ccc(CCN2C(=O)CSC2=Nc2ccc(C(C)C)cc2)cc1OC	-42.5%	29100 nM [falling, single point]	
CSC[C@H](NC(=O)COc1cc2c(c3oc(=O)c(C)c(C)c13)CCC(C)(C)O2)C(=O)O	19.1%		3260 nM [rising, full curve]
COC(=O)C1=CNC=C(C(=O)OC)C1c1ccc(Cl)cc1		1030 nM [rising, single point]	1300 nM [rising, partial curve]
Cc1ccc(S(=O)(=O)N2CCCC2C(=O)NCCc2ccccc2)cc1 (configuration not stated)	2.03%	73.1 nM [falling, full curve, poor fit]	6510 nM [falling, single point]
[O-]/C(=C(\C(=S)Nc1cccc2ccccc12)[n+]1ccccc1)c1ccc(OC(F)F)cc1	6.52%		
O=[N+]([O-])c1cccc(C2CC(c3ccccc3)=NN2c2ccccc2)c1 (configuration not stated)	-47.2%		
CCOC(=O)C(CC)(CC)C(=O)/C=C/c1ccc(OC)cc1	14.5%		29100 nM [rising, single point]
COCCCNC(=O)c1cc(-c2cccnc2)nc2ccc(S(=O)(=O)N3CCCCCC3)cc12	28%	164 nM [rising, full curve, poor fit]	130 nM [rising, full curve, poor fit]
COc1cc(OCC(=O)NC(C)C)cc2c1C(=O)O[C@@H](C)CCCC(=O)CCCCC2	1.39%		6510 nM [rising, single point]
COc1ccc(OC)c(S(=O)(=O)NCCc2csc(-c3cccnc3)n2)c1	-3.4%		291 nM [rising, full curve, poor fit]
COc1ccc(NC(=O)CN2C(=O)NC(C)(c3ccccc3)C2=O)c(OC)c1 (configuration not stated)	-31.6%	5170 nM [falling, partial curve]	89.1 nM [rising, full curve, poor fit]
Cc1cccc(-c2nnc(-c3cccc(NC(=O)Cc4cccs4)c3)o2)c1	-13%		
CC(=O)N1c2ccc(S(=O)(=O)N3CCC(C(=O)N4CCC(C)CC4)CC3)cc2CC1C (configuration not stated)		731 nM [falling, single point]	
COc1ccc(NS(=O)(=O)c2ccc(OC)c(NC(=O)CCC3CCCC3)c2)cc1	10.6%		
Cc1cnc(C(=O)OC(C)C(=O)Nc2ccc(Cl)cn2)cn1 (configuration not stated)	16.5%		
C/C=C(/C(=C/C)c1ccc(O)cc1)c1ccc(O)cc1	-59%	29100 nM [falling, single point]	29100 nM [falling, single point]
CC(C)(CNC(=O)c1ccc(Br)o1)CNC(=O)c1ccc(Br)o1	-11%		580 nM [falling, single point]
O=C(Nc1ccc(N2CCOCC2)cc1)c1ccc(Cl)nc1	34.3%	18400 nM [rising, single point]	
Cc1ccccc1N(C)S(=O)(=O)c1nnc(NC(=O)c2ccco2)s1	22.5%		731 nM [falling, full curve]
Cc1cccc(NC(=O)CNC(=O)c2cccc(-n3cccc3)c2)c1C			6510 nM [rising, single point]
Nc1[nH]n2c(=O)cc(-c3ccccc3)nc2c1N=Nc1ccc2c(c1)OCO2	-25.6%		29100 nM [falling, partial curve, poor fit]
COc1cc(NC(=S)N2CCCC(C)C2)c(OC)cc1Cl (configuration not stated)	-9.34%		4.11 nM [falling, full curve, poor fit]
O=c1c2ccccc2oc2ccc(Oc3ccccc3)cc12	11%		18400 nM [rising, partial curve]

Quoted at random: 2 compounds from above, in no set order.
Structure (SMILES)	cell number change	AC50 [1]	AC50 [2]
COCCCNC(=O)c1cc(-c2cccnc2)nc2ccc(S(=O)(=O)N3CCCCCC3)cc12	28%	164 nM [rising, full curve, poor fit]	130 nM [rising, full curve, poor fit]
CC(C)(CNC(=O)c1ccc(Br)o1)CNC(=O)c1ccc(Br)o1	-11%		580 nM [falling, single point]
